This experiment deals with 3× hemagglutinin (3×HA)-tagged MYR1 (Toxoplasma gondii (type I RH strain)). Description: affinity purification with mass spectrometry.

The values below come from article PMC7031616.

No constants are given. Whether binding was seen depends on the method and setting. Binding seen in cells or lysates may run through a third protein. These calls come from enrichment with a bait or labelling near it, and not all partners need be listed. No binding means not detected with the bait.

B1: ROP17 (protein, UniProt Q2PAY3 22-608)
chain: LLLRSPTSNDVFGELVASAERAQPLATRLTKRISRLNFNDREDDFWEDHGDASWNNSYTLVNGRTTLGSENRRRPASHSLIERPYYRDGRLSPVLGVQERRGRSVHSYHEEPVSFFDQRAFDEYTFRRRSQLHRQRARAGLRSRIKQNVRRLWTSARGAVRGWGRRVRRKIGDLFVGHLMPQLRRLRFWDQGLPPVVPPLIGNEPGQASVALVAERMEARLREKTLTEKNPTEAQQAVGTYLINSAENTWFISIPGGRYILLKKRGFLGGGGFGLVYHVEHPTTGQPFALKIFVQRVMNNEVGDKISDLIEDEFGVMKYFPPEWTPARMYSELRFMVPLLKLRVLGKPEFQDARNHLRIFSVCALFPKAQGDLEEAAALLADMDRTNAYNMRMSSTIQMVKLLARFHAFGLVHGDVKLQNFLVDKSGLLLLSDFTQILRTNERRYPPVVTVLYMSPEIATCLITRLRNAIPYTAEIDSWMLGISLYRLWCGDFPFGITLDATALQVAGIVIRSSASSLDFASCHDIPEQFREMIVGFLRKTPGVRLSPQQALEQFSLLNWKGPSPASDTASESEPVSTEEAALLQKE
For B1, the binding result is listed as “no binding”.

B2: GRA7 (TGGT1_203310) (protein, UniProt O00933 27-236)
chain: ATASDDELMSRIRNSDFFDGQAPVDSLRPTNAGVDSKGTDDHLTTSMDKASVESQLPRREPLETEPDEQEEVHFRKRGVRSDAEVTDDNIYEEHTDRKVVPRKSEGKRSFKDLLKKLALPAVGMGASYFAADRLVPELTEEQQRGDEPLTTGQNVGTVLGFAALAAAAAFLGMGLTRTYRHFSPRKNRSRQPALEQEVPESGEDGEDARQ
In the case of B2, the binding result is “binds”.
